Assay results published in patent US20230000816A1, “SODIUM-GLUCOSE LINKED TRANSPORTER INHIBITORS FOR THE MANAGEMENT OF CHRONIC KIDNEY DISEASE, HYPERTENSION, AND HEART FAILURE IN COMPANION ANIMALS” (INCREVET, INC., priority 2019, published 2023).

Experiments:
Sprague-Dawley rats = assay: PPAR-γ agonist (pioglitazone)-mediated fluid retention / plasma expansion model, 7 days, drugs in drinking water; assay type: in vivo, rat; conditions: pioglitazone diet, mean ± SEM
Text: It has been recognized in human clinical practice that an undesirable side effect of PPAR-γ agonists of the thiazolidinedione class is fluid retention and edema, which limits their use in patients with congestive heart failure. The mechanism of action of the thiazolidinediones is believed to be through stimulation of expression of the epithelial sodium channel (ENaC) in the kidney, resulting in an increased uptake of sodium ions from the distal tubule. Sodium retention and the associated expansion of extracellular fluid volume are characteristic features of congestive heart failure in multiple species. […] The sodium channel blocker amiloride was delivered in drinking water to a third group of rats as a comparator. Plasma expansion was measured by hematocrit. […] Food weight was recorded to measure consumption over the course of the experiment. […] Full bottles were pre-weighed and the weights recorded to allow consumption to be measured over the course of the experiment. On days 1 and 7, rats were warmed using a heating pad and lightly anesthetized using isoflurane. Using a sterile scalpel blade, a small tail nick was made on the distal one third of the tail. […] Plasma volume was determined using a microhematocrit capillary tube reader card. On day 7, rats, food and water bottles were again weighed and recorded and hematocrits were determined using blood collected by a tail nick.

purpose-bred beagles = assay: 24 h urine collection (glucose excretion, volume, electrolytes) in dogs; assay type: in vivo, dog; conditions: treatment group
Description: Groups of four purpose-bred beagles per cohort were administered ascending doses of bexagliflozin in the form of a proline co-crystal consisting of two moles of L-proline for every mole of bexagliflozin. The co-crystal was dissolved in 10% PEG400 and administered by oral gavage to dogs that had been fasted overnight. Control dogs were administered 10% PEG400. One hour after dosing, glucose solution (2 g kg^−1, 5 ml kg^−1) was administered by gavage. Serum glucose concentrations were quantitated by an automated clinical chemistry analyzer for samples collected before dosing, before glucose challenge, and 15, 30, 60, and 120 min after glucose challenge. Urine was collected from 0 to 4 h, 4 to 8 h and 8 to 24 h after dosing for electrolyte analyses (Na^+, K^+, Cl^− and Ca^2+) and glucose measurement. Whole blood samples of approximately 500 μL were collected from the cephalic vein 0, 0.25, 0.5, 1, 2, 4, 8, 12 and 24 h after dosing for pharmacokinetic analysis.
Urine output increased in the treatment group, consistent with an osmotic diuresis or with a role for the inhibited transporters in water reuptake in the proximal tubule.

SMILES | Food Consumption (Sprague-Dawley rats) | food consumption vs control (purpose-bred beagles) | water consumption vs control (purpose-bred beagles; did not reach statistical significance)
N=C(N)NC(=O)c1nc(Cl)c(N)nc1N [Amiloride, reference compound] | 30.9 ± 1.1 g per 24 h | – | –
OC[C@H]1O[C@@H](c2ccc(Cl)c(Cc3ccc(OCCOC4CC4)cc3)c2)[C@H](O)[C@@H](O)[C@@H]1O [Bexagliflozin, (2S,3R,4R,5 S,6R)-2-(4-chloro-3-(4-(2-cyclopropoxyethoxy)benzyl)phenyl)-6-(hydroxymethyl)tetrahydro-2H-pyran-3,4,5-triol] | 34.4 ± 1.0 g per 24 h | no significant change in food consumption | trend toward higher water consumption
